The record followed here is patent publication US9174980B2, “Heterocyclic compounds as inhibitors of leukotriene production” (Boehringer Ingelheim International GmbH, priority 2012, dated 2015).

Amino acid sequences for entries named in this document (tags omitted).
UniProt P20292, whole entry: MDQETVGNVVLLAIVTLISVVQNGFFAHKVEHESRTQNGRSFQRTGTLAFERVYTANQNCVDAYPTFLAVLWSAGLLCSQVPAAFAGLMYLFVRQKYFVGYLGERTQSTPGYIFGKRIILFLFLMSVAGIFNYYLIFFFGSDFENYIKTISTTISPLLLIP

The IC50 is the concentration that inhibits the measured activity by half.

Experiment [1] has as its target recombinant human FLAP protein (Homo sapiens, UniProt P20292). As to the kind of experiment: FLAP binding assay (Scintillation Proximity Assay, displacement of [125I]L-691,831). Particulars: read-out: Human FLAP SPA Binding (IC50 nM); tested form: TFA. Here is the method: Compounds are assessed for the ability to bind to FLAP in a binding assay that measures compound-specific displacement of an iodinated (^125I) FLAP inhibitor via a Scintillation Proximity Assay format (adapted from S. Charleson et al., Mol. Pharmacol., 1992, 41, 873-879).
Cell pellets produced from sf9 insect cells expressing recombinant human FLAP protein are resuspended in buffer A [15 mM Tris-HCl (pH 7.5), 2 mM MgCl2, 0.3 mM EDTA, 1 mM PMSF]. The cells are lysed with a Dounce homogenizer and the material is centrifuged at 10,000×g for 10 minutes. The supernatant is then collected and centrifuged at 100,000×g for 60 minutes. To prepare membrane protein for an assay, an aliquot of the 100,000×g pellet is resuspended in 1 ml of buffer A, Dounce homogenized, and finally subjected to polytron mixing (30 seconds). Membrane protein (25 μl, 5 μg) is mixed with WGA SPA beads (Amersham) and stirred for 1 h. […] (final concentrations: beads, 200 μg/well; protein, 5 μg/well; [^125I] probe, 0.08 nM/well (17 nCi/well). The plates are shaken for 2 h before reading on a Microbeta plate reader. Non-specific binding is determined by the addition of 10 μM cold L-691,831 compound.

Experiment [2] relates to synthesis of LTB4 in human whole blood. Briefly: Human whole blood assay (calcimycin-stimulated LTB4 synthesis). Particulars: read-out: Human Whole Blood LTB4 Assay for FLAP (IC50 nM); tested form: TFA. Here is the method: Compounds are additionally tested in a human whole blood assay to determine their ability to inhibit the synthesis of LTB4 in a cellular system. Compounds are combined with heparinized human whole blood and incubated for 15 minutes at 37° C. Calcimycin (20 μM final, prepared in phosphate-buffered saline, pH 7.4) is then added and the mixture is incubated for another 30 minutes at 37° C. The samples are centrifuged for 5 min at low speed (1500×g) and the plasma layer is removed. Plasma LTB4 concentrations are then measured using an antibody-based homogenous time-resolved fluorescence method (CisBio, Bedford, Mass.).

The structures given here were assigned with low confidence; some may be wrong.

As to `CC(C)C(C)(c1ccc(OCc2ccccn2)cc1)c1cn(Cc2ccc(C(C)(C)O)cn2)c2ccccc12` (centres unmarked), the IC50 in experiment [1] stood at 3.2 nM; in experiment [2], 550 nM.
